Measured values taken from PMC7666136.
Results are given in words; binding and its absence hold for the method and conditions named. For some assays here: In cells and extracts the contact can be indirect. Some binding calls cover weakened binding; strength is not graded here.

By UniProt entry, the sequences of proteins in these tests, tags left out. Where a name states a change or a piece, a line headed by the entry shows the natural chain unless it says otherwise. Chains listed by the source or under a name are the forms on record and can include a tag or linker.
UniProt Q12888: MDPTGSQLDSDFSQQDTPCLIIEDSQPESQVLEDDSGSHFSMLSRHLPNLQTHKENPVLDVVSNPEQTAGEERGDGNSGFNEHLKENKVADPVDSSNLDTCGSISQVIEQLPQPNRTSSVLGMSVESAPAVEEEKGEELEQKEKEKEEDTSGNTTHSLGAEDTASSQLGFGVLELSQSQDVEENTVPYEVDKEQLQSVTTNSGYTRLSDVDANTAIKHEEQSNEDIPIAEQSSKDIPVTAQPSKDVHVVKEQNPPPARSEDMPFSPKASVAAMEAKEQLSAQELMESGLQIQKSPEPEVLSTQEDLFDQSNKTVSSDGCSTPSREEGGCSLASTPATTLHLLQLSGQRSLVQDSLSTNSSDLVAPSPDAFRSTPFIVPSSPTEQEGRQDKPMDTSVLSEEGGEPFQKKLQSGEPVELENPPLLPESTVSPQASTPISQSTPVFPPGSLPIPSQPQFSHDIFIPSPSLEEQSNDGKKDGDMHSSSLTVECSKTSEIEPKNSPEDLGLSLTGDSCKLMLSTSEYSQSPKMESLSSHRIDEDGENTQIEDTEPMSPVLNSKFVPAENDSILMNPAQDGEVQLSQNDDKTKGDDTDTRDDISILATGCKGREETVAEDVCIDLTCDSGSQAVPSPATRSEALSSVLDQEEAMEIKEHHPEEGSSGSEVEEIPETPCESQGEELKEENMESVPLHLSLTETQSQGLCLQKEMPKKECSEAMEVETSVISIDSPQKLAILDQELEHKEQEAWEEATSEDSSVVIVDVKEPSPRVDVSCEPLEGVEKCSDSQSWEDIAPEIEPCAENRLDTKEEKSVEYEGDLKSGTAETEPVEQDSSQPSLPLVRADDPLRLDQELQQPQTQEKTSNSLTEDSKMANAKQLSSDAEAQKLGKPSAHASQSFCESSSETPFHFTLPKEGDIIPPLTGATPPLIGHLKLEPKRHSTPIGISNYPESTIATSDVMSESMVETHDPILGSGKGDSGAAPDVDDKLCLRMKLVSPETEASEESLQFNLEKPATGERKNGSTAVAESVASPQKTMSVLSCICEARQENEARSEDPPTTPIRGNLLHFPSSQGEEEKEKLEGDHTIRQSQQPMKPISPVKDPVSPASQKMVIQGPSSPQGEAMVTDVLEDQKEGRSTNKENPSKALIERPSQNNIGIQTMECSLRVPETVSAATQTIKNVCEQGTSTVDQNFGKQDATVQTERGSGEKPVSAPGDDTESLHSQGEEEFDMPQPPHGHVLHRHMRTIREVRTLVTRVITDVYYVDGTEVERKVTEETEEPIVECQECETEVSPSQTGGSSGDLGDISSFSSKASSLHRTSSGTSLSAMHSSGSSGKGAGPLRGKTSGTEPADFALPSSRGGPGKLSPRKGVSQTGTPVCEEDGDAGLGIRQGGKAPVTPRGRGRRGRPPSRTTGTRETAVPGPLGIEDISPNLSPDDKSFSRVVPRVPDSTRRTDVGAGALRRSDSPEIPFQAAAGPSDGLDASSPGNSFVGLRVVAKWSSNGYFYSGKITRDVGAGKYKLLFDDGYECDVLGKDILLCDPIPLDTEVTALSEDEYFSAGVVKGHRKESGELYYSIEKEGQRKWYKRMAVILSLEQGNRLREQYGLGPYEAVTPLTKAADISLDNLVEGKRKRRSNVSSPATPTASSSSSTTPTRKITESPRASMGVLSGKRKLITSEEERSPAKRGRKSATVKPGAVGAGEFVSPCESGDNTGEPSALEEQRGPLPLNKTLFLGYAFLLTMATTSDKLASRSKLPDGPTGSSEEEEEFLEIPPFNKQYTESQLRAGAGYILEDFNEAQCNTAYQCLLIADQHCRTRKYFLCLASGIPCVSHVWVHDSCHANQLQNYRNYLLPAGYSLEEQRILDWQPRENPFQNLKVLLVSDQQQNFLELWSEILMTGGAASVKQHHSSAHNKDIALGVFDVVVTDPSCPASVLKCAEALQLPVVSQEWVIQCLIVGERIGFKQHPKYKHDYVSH
eGFP-53BP1^YY1258,1259AA (Q12888, form named): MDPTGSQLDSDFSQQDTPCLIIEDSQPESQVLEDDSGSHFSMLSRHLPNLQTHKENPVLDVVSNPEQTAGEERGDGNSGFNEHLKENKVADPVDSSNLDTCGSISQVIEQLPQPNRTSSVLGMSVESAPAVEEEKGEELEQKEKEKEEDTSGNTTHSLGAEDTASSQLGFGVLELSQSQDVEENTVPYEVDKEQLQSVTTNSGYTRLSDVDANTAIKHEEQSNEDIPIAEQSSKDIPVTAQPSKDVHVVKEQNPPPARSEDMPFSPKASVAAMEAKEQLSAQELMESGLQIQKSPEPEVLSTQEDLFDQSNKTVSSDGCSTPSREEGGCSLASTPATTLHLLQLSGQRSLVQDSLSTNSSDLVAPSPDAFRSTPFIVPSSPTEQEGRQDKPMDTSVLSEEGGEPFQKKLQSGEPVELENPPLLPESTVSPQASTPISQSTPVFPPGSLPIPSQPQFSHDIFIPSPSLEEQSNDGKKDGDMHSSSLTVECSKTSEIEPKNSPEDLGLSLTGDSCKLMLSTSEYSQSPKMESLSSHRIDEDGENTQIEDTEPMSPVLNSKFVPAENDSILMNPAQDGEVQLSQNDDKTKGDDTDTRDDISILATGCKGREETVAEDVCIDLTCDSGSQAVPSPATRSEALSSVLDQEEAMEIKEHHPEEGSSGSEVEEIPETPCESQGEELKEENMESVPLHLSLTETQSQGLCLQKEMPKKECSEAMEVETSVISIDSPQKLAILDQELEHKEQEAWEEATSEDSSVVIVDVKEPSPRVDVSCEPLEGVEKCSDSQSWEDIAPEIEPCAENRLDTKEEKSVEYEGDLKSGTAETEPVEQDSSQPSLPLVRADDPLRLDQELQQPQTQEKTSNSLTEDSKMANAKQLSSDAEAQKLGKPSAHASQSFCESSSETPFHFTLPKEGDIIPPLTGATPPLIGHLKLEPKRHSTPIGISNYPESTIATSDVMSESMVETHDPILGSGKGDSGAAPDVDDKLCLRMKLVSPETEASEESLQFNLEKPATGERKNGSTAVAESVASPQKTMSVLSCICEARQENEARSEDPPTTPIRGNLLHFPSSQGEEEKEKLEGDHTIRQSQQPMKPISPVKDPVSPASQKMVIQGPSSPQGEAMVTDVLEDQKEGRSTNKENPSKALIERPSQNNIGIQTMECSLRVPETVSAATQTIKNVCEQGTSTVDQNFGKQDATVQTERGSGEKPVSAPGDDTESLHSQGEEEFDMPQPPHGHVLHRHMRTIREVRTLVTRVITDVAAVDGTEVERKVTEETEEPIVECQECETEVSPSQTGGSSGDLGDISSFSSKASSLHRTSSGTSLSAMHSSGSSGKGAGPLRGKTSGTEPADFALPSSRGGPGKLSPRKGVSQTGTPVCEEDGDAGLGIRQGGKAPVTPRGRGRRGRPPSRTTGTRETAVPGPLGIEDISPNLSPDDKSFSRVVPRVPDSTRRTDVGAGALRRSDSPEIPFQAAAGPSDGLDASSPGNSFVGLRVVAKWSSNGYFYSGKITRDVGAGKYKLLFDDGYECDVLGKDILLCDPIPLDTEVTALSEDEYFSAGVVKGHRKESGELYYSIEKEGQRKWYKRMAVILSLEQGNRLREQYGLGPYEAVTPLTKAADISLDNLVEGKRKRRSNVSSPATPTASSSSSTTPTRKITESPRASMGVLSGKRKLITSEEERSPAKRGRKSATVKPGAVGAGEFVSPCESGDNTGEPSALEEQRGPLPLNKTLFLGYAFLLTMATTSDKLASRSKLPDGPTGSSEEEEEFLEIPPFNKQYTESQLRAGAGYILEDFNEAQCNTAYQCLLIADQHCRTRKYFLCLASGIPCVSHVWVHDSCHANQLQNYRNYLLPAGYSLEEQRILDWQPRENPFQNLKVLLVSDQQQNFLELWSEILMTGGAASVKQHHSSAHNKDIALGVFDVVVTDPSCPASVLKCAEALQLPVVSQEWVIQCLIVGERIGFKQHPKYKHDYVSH

Assays:
eGFP-53BP1^D1521R [1] = target: eGFP-53BP1^D1521R (UniProt Q12888); assay: cross-pair correlation function (cross-pCF) analysis, two-colour fluorescence cross-correlation; two-channel line scans in live DIvA cells co-transfected with eGFP- and mKate2-tagged copies of the same 53BP1 construct, treated with 4OHT for 60 min; dimer fraction from cross pCF0 against pCF0, corrected for spectral bleed through
eGFP-53BP1^D1521R [2] = target: eGFP-53BP1^D1521R (UniProt Q12888); assay: Number and Brightness (NB) analysis of fluorescence fluctuation spectroscopy; frame scans in nuclei of live DIvA cells expressing eGFP-tagged 53BP1 constructs, 37 °C, brightness windows calibrated on free eGFP (B monomer 1.15, dimer 1.30, oligomer >1.60); before and 30-60 min after 4OHT induction of DSBs; also after knockdown of endogenous 53BP1
eGFP-53BP1^K1814M [3] = target: eGFP-53BP1^K1814M (UniProt Q12888); assay: cross-pair correlation function (cross-pCF) analysis, two-colour fluorescence cross-correlation; two-channel line scans in live DIvA cells co-transfected with eGFP- and mKate2-tagged copies of the same 53BP1 construct, treated with 4OHT for 60 min; dimer fraction from cross pCF0 against pCF0, corrected for spectral bleed through
eGFP-53BP1^K1814M [4] = target: eGFP-53BP1^K1814M (UniProt Q12888); assay: Number and Brightness (NB) analysis of fluorescence fluctuation spectroscopy; frame scans in nuclei of live DIvA cells expressing eGFP-tagged 53BP1 constructs, 37 °C, brightness windows calibrated on free eGFP (B monomer 1.15, dimer 1.30, oligomer >1.60); before and 30-60 min after 4OHT induction of DSBs; also after knockdown of endogenous 53BP1
eGFP-53BP1^L1619A [5] = target: eGFP-53BP1^L1619A (UniProt Q12888); assay: cross-pair correlation function (cross-pCF) analysis, two-colour fluorescence cross-correlation; two-channel line scans in live DIvA cells co-transfected with eGFP- and mKate2-tagged copies of the same 53BP1 construct, treated with 4OHT for 60 min; dimer fraction from cross pCF0 against pCF0, corrected for spectral bleed through
eGFP-53BP1^L1619A [6] = target: eGFP-53BP1^L1619A (UniProt Q12888); assay: Number and Brightness (NB) analysis of fluorescence fluctuation spectroscopy; frame scans in nuclei of live DIvA cells expressing eGFP-tagged 53BP1 constructs, 37 °C, brightness windows calibrated on free eGFP (B monomer 1.15, dimer 1.30, oligomer >1.60); before and 30-60 min after 4OHT induction of DSBs; also after knockdown of endogenous 53BP1
eGFP-53BP1^YY1258,1259AA [7] = target: eGFP-53BP1^YY1258,1259AA (UniProt Q12888); assay: as above
eGFP-53BP1^YY1258,1259AA [8] = target: eGFP-53BP1^YY1258,1259AA (UniProt Q12888); assay: FRET or BRET; homo-FRET by fluorescence anisotropy imaging microscopy (FAIM) of eGFP-tagged 53BP1 constructs in live DIvA cells; delta r against free eGFP (r 0.32); before and after 4OHT

In the case of “eGFP-53BP1^D1521R (from UniProt Q12888 1-1972)”, the binding (eGFP-53BP1^D1521R [1]) is reported as “binds” and the binding (eGFP-53BP1^D1521R [2]) is reported as “binds”.

“eGFP-53BP1^K1814M (from UniProt Q12888 1-1972)” was tested, and the binding (eGFP-53BP1^K1814M [3]) was “binds” and the binding (eGFP-53BP1^K1814M [4]) was “binds”.

In the case of “eGFP-53BP1^L1619A (from UniProt Q12888 1-1972)”, the binding (eGFP-53BP1^L1619A [5]) is reported as “binds” and the binding (eGFP-53BP1^L1619A [6]) is reported as “binds”.

For “eGFP-53BP1^YY1258,1259AA (from UniProt Q12888 1-1972)”, the binding (eGFP-53BP1^YY1258,1259AA [7]) was “binds” and the binding (eGFP-53BP1^YY1258,1259AA [8]) was “binds”.
